Test results taken from article PMC6260918.

Target: T1, GST-TXNIP-T (150a.a-317a.a) (UniProt Q9H3M7)
T1 sequence: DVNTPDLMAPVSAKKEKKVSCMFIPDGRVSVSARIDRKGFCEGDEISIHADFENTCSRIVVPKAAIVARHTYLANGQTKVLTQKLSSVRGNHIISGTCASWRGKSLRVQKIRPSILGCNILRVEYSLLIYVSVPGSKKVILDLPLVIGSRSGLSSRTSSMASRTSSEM
Experiment: pull-down; GST pull-down of recombinant proteins, GST-TXNIP-T (150-317) and His-AKT; both purified

His-AKT (enzyme)
binding: binds

These are yes or no findings as the source states them, for the method shown. Binding calls can cover weak binding; strength is not graded here. Where a sequence is shown, tags or fusion partners need not be part of it.
